PubChem BioAssay AID1159579 – Peter MacCallum Cancer Centre – 2015

Purpose: 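Retest candidate lymphatic endothelial migration regulators using several independent siRNAs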 (follow-up of hits)
Cell system: human dermal lymphatic endothelial cells
Reagent: single siRNA against human genes, 25 nM
Measured: 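Scratch wound imaging measuring area filled by moving cells plus nuclei number, averaged over two wells and scaled to mock-transfected controls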
Reading the numbers: migration relative to mock: higher = more migration into the scratch; mean nuclei count: higher = more cells remaining
Active means: 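Called active when the migration ratio is 0.6 or lower (impaired) or 1.3 or higher (accelerated), but inactive whenever the mean nuclei count falls under 3300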
Calls: active = migration changed (impaired or accelerated); inactive = no migration change, or too few cells
The whole screen tested about 2,000 reagents; below is an unselected part. 549 of them (27%) were called active. 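Some migration ratios are negative; siRNAs with too few cells are inactive whatever their migration ratio.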 Unmarked entries are inactive. Reagents against one gene are numbered here. The record does not give: the time to read-out.

target	reagent	migration relative to mock	migration and cell number class	mean nuclei count
CACNA2D1 (GeneID 781)	1	0.62	no change in migration or cell number	5240
CACNA2D1 (GeneID 781)	2	0.98	no change in migration or cell number	5577
CACNA2D1 (GeneID 781)	3	1.07	no change in migration or cell number	6510
CACNA2D1 (GeneID 781)	4	-0.77 (active)	migration reduced	3946
CLIC4 (GeneID 25932)	1	1	no change in migration or cell number	6266
CLIC4 (GeneID 25932)	2	0.58 (active)	migration reduced	5109
CLIC4 (GeneID 25932)	3	0.29	too few cells; migration not scored	2513
CLIC4 (GeneID 25932)	4	0.8	no change in migration or cell number	5152
PLPPR2 (GeneID 64748)	1	0.99	no change in migration or cell number	5252
PLPPR2 (GeneID 64748)	2	0.72	no change in migration or cell number	6342
PLPPR2 (GeneID 64748)	3	0.38 (active)	migration reduced	4716
PLPPR2 (GeneID 64748)	4	0.6 (active)	migration reduced	5738
TRMT61B (GeneID 55006)	1	0.92	no change in migration or cell number	4862
TRMT61B (GeneID 55006)	2	0.9	no change in migration or cell number	3786
TRMT61B (GeneID 55006)	3	0.92	no change in migration or cell number	5532
TRMT61B (GeneID 55006)	4	0.78	no change in migration or cell number	5373
EPOR (GeneID 2057)	1	0.26 (active)	migration reduced	4304
EPOR (GeneID 2057)	2	0.68	no change in migration or cell number	5072
EPOR (GeneID 2057)	3	0.44 (active)	migration reduced	5024
EPOR (GeneID 2057)	4	0.88	no change in migration or cell number	6776
ZNF76 (GeneID 7629)	1	0.68	no change in migration or cell number	6655
ZNF76 (GeneID 7629)	2	-0.54 (active)	migration reduced	3714
ZNF76 (GeneID 7629)	3	0.44 (active)	migration reduced	3652
ZNF76 (GeneID 7629)	4	0.86	no change in migration or cell number	5852
CMC1 (GeneID 152100)	1	0.83	no change in migration or cell number	5149
CMC1 (GeneID 152100)	2	0.94	no change in migration or cell number	4342
CMC1 (GeneID 152100)	3	0.9	no change in migration or cell number	4924
CMC1 (GeneID 152100)	4	0.22 (active)	migration reduced	3761

A few values from the list.
Entry of CACNA2D1 (GeneID 781) #3 under “migration and cell number class”: no change in migration or cell number
For “migration relative to mock”, PLPPR2 (GeneID 64748) #3 is entered as 0.38 (active)
Under “migration and cell number class”, TRMT61B (GeneID 55006) #3 has no change in migration or cell number
Entry of TRMT61B (GeneID 55006) #2 under “migration relative to mock”: 0.9
CLIC4 (GeneID 25932) #4, migration relative to mock → 0.8
Under “migration relative to mock”, PLPPR2 (GeneID 64748) #1 shows 0.99

Additional records follow.
target	reagent	migration relative to mock	migration and cell number class	mean nuclei count
C1orf87 (GeneID 127795)	1	0.46 (active)	migration reduced	4854
C1orf87 (GeneID 127795)	2	0.78	no change in migration or cell number	4984
C1orf87 (GeneID 127795)	3	0.95	no change in migration or cell number	5083
C1orf87 (GeneID 127795)	4	-0.18	too few cells; migration not scored	2916
SHB (GeneID 6461)	1	1.06	no change in migration or cell number	6710
SHB (GeneID 6461)	2	0.99	no change in migration or cell number	4588
SHB (GeneID 6461)	3	0.77	no change in migration or cell number	5206
SHB (GeneID 6461)	4	0.57 (active)	migration reduced	5512
RHOBTB3 (GeneID 22836)	1	0.58 (active)	migration reduced	4066
RHOBTB3 (GeneID 22836)	2	1.06	no change in migration or cell number	4072
RHOBTB3 (GeneID 22836)	3	1.31 (active)	migration increased	5600
RHOBTB3 (GeneID 22836)	4	0.78	no change in migration or cell number	3860
BIRC7 (GeneID 79444)	1	1	no change in migration or cell number	6584
BIRC7 (GeneID 79444)	2	0.86	no change in migration or cell number	6405
BIRC7 (GeneID 79444)	3	0.64	no change in migration or cell number	5354
BIRC7 (GeneID 79444)	4	0.88	no change in migration or cell number	5282
POGLUT3 (GeneID 143888)	1	1.01	no change in migration or cell number	5092
POGLUT3 (GeneID 143888)	2	0.8	no change in migration or cell number	5459
POGLUT3 (GeneID 143888)	3	0.82	no change in migration or cell number	6031
POGLUT3 (GeneID 143888)	4	0.94	no change in migration or cell number	5559
TTLL12 (GeneID 23170)	1	0.7	no change in migration or cell number	6364
TTLL12 (GeneID 23170)	2	0.76	no change in migration or cell number	5136
TTLL12 (GeneID 23170)	3	0.7	no change in migration or cell number	5606
TTLL12 (GeneID 23170)	4	0.48 (active)	migration reduced	3338
CYP4F11 (GeneID 57834)	1	-1.52	too few cells; migration not scored	2631
CYP4F11 (GeneID 57834)	2	0.74	no change in migration or cell number	7927
CYP4F11 (GeneID 57834)	3	0.69	no change in migration or cell number	5314
CYP4F11 (GeneID 57834)	4	0.76	no change in migration or cell number	6322
SH3GL1 (GeneID 6455)	1	0.73	no change in migration or cell number	5518
SH3GL1 (GeneID 6455)	2	0.46 (active)	migration reduced	4892
SH3GL1 (GeneID 6455)	3	0.97	no change in migration or cell number	5322
SH3GL1 (GeneID 6455)	4	0.68	no change in migration or cell number	5856
LGALS1 (GeneID 3956)	1	0.02 (active)	migration reduced	3910
LGALS1 (GeneID 3956)	2	0.26	too few cells; migration not scored	3264
LGALS1 (GeneID 3956)	3	0.76	no change in migration or cell number	5416
LGALS1 (GeneID 3956)	4	0.38 (active)	migration reduced	4761
SEMA4C (GeneID 54910)	1	0.78	no change in migration or cell number	5885
SEMA4C (GeneID 54910)	2	0.98	no change in migration or cell number	5658
SEMA4C (GeneID 54910)	3	0.91	no change in migration or cell number	5191
SEMA4C (GeneID 54910)	4	0.96	no change in migration or cell number	4759
